No constants are given. Whether binding was seen depends on the method and setting. In cells and extracts the contact can be indirect. Some binding calls cover weakened binding; strength is not graded here. Where a sequence is shown, tags or fusion partners need not be part of it.

Assay [1] has as its target H2AX (UniProt P16104). Kind of assay: GST-TOPK pull-down from asynchronized and M phase arrest HeLa cells, LC/Mass/Mass.
Assay [2] concerns the target H2AX (UniProt P16104). Kind of assay: GST pull-down, LC/Mass/Mass.
The target of assay [3] is H2AX (UniProt P16104). The assay is described as follows: co-immunoprecipitation of Flag-TOPK with M2 beads from transfected cells, immunoblotting. Background: A western blot detects proteins with antibodies after separation by electrophoresis.
Assay [4] addresses H2AX (UniProt P16104). The assay is described as follows: co-immunoprecipitation with M2 beads from transfected H1299 cells (nocodazole M phase arrest against asynchronized), immunoblotting.
Assay [5] has as its target H2AX (UniProt P16104). The assay is described as follows: co-immunoprecipitation from M phase cell lysates.

B1: GST-TOPK (enzyme, UniProt Q96KB5 1-322, looked up, not shown: a dimerising Fc or GST)
chain: MEGISNFKTPSKLSEKKKSVLCSTPTINIPASPFMQKLGFGTGVNVYLMKRSPRGLSHSPWAVKKINPICNDHYRSVYQKRLMDEAKILKSLHHPNIVGYRAFTEANDGSLCLAMEYGGEKSLNDLIEERYKASQDPFPAAIILKVALNMARGLKYLHQEKKLLHGDIKSSNVVIKGDFETIKICDVGVSLPLDENMTVTDPEACYIGTEPWKPKEAVEENGVITDKADIFAFGLTLWEMMTLSIPHINLSNDDDDEDKTFDESDFDDEAYYAALGTRPPINMEELDESYQKVIELFSVCTNEDPKDRPSAAHIVEALETDV
Consider B1, for which the binding result in the assay with H2AX [1] and with H2AX [2] was “binds” throughout.

B2: Flag-TOPK-WT (Flag-tagged wild-type T-lymphokine-activated killer cell-originated protein kinase, expressed from pCMV2-Flag-TOPK (WT)) (enzyme, UniProt Q96KB5 1-322, looked up, not shown: small tags and cut ends)
chain: MEGISNFKTPSKLSEKKKSVLCSTPTINIPASPFMQKLGFGTGVNVYLMKRSPRGLSHSPWAVKKINPICNDHYRSVYQKRLMDEAKILKSLHHPNIVGYRAFTEANDGSLCLAMEYGGEKSLNDLIEERYKASQDPFPAAIILKVALNMARGLKYLHQEKKLLHGDIKSSNVVIKGDFETIKICDVGVSLPLDENMTVTDPEACYIGTEPWKPKEAVEENGVITDKADIFAFGLTLWEMMTLSIPHINLSNDDDDEDKTFDESDFDDEAYYAALGTRPPINMEELDESYQKVIELFSVCTNEDPKDRPSAAHIVEALETDV
Turning to B2, the binding result in the assay with H2AX [3], with H2AX [4] and with H2AX [5] was “binds” in each case.
